Series [1] deals with Zcchc11 deltaPneumoG/C (Mus musculus). The series is described as follows: activity assay. Particulars: uridylation with Lin28 (IP or recombinant); Lin28 and Zcchc11 sufficient; purified recombinant protein; protein details: Flag and His, E. coli (pETDUET-1); label: 5'-end label (EMSA). Background: Mobility shift assays separate free from complexed probe on a gel.
Series [2] concerns Lin28A + Zcchc11 C2H2 domain (Homo sapiens / Mus musculus). Put plainly: EMSA. The settings on record: Lin28 and Zcchc11 C2H2 domain bind pre-let-7 synergistically; 0.5 nM RNA; purified recombinant protein; protein details: His-tagged each; label: 5'-end label (EMSA).
The target of a further series is Zcchc11 (Mus musculus) (UniProt B2RX14). Put plainly: activity assay. Particulars: Zcchc11-catalyzed uridylation of mature miRNA, no Lin28 stated; Zcchc11 species not stated in legend; protein in a lysate after overexpression; protein details: Flag, immunopurified from HEK293T.

Chains of the proteins cited; added tags and fusions are not shown. A change or cut given only in a name is not applied to a line headed by its entry. A line that says so, or that is headed by a name, gives the form on record, which may keep a tag or linker.
UniProt B2RX14: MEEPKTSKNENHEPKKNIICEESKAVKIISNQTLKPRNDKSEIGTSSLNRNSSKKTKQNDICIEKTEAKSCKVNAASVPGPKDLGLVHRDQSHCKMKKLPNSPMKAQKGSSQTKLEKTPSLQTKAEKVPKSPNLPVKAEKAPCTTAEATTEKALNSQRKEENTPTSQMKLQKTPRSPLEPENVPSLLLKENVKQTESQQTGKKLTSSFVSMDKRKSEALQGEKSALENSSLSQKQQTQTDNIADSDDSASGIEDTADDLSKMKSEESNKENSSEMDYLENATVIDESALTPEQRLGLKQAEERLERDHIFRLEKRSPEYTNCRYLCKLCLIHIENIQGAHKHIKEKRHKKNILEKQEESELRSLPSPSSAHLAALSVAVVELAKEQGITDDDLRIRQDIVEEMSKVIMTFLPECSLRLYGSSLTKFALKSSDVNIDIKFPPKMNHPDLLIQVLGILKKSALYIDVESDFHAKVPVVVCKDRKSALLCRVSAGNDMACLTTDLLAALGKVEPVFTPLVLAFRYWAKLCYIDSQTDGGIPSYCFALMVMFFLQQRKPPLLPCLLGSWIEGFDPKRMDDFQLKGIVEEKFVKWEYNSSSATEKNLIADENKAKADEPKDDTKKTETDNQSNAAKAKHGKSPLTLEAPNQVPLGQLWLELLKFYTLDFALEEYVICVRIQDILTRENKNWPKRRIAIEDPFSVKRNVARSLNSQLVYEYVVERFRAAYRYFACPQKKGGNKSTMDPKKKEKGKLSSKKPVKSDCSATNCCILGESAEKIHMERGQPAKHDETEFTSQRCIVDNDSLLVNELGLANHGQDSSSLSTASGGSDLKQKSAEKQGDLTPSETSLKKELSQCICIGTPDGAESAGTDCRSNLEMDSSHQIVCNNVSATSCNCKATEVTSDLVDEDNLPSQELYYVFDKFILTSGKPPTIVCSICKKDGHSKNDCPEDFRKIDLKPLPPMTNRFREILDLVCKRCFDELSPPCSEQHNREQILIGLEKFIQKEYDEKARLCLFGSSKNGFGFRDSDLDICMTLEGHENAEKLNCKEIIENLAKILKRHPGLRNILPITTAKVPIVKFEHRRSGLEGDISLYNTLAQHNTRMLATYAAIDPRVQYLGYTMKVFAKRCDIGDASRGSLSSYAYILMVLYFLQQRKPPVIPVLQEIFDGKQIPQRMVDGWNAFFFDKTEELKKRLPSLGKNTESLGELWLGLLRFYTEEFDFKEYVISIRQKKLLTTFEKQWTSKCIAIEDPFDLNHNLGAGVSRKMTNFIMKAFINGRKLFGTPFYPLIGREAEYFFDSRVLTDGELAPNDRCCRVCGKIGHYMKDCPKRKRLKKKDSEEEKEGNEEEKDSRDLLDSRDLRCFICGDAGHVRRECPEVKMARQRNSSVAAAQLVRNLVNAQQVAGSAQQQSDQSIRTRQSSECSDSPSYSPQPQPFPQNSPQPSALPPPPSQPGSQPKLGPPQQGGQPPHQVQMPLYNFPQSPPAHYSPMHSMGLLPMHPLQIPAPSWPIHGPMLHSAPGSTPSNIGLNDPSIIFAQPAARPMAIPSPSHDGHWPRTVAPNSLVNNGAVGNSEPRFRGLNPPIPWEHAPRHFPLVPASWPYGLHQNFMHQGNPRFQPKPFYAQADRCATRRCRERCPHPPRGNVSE
Lin28A + Zcchc11 C2H2 domain (Homo sapiens / Mus musculus), one chain, as listed by the source, chain 2 of 2: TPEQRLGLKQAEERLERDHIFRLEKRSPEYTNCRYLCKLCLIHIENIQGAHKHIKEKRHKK
Lin28A + Zcchc11 C2H2 domain (Homo sapiens / Mus musculus), one chain, as listed by the source, chain 1 of 2: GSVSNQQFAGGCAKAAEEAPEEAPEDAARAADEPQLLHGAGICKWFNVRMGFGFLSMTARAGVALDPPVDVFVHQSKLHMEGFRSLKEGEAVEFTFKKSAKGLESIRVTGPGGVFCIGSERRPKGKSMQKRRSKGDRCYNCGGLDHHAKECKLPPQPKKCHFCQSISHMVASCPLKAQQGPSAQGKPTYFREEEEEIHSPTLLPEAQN

For part of these data: The exact form of at least one protein or probe is not confirmed.

Turning to “GAGGUAGUAGUUUGUACAGUUUGAGGGUCUAUGAUACCACCCGGUACAGGAGAUAACUGUACAGGCCACUGCCUUGC [pre-let-7g]”, the “activity on this sequence” value in series [1] is on record as “active”. Moreover, in series [2], the binding result was “binds”. As for “UGAGGUAGUAGUUUGUGCUGUU [mature let-7 miRNA (SEQ 12)]”, the “activity on this sequence” value with Zcchc11 (Mus musculus) is recorded as “active”.

The values are drawn from patent US20140328858, “LIN28-MEDIATED CONTROL OF LET-7 BIOGENESIS” (Children's Medical Center Corporation, published 2014).
